These are yes or no findings as the source states them, for the method shown. Binding calls can cover weak binding; strength is not graded here.

The chains behind the UniProt entries cited, without tags or fusion partners. Where a name states a change or a piece, a line headed by the entry shows the natural chain unless it says otherwise.
UniProt Q9HCN6: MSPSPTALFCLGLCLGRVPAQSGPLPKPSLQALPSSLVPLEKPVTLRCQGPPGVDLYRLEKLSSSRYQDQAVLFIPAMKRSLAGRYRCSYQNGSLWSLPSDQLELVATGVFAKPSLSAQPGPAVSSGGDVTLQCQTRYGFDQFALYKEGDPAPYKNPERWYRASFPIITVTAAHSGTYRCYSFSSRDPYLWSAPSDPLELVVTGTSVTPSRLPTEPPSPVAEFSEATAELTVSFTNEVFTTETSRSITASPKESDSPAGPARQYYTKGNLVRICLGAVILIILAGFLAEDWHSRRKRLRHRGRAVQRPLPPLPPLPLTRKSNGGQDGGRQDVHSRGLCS

The values that follow come from PMC8622445.

The test has as its target T1, biglycan (BGN), recombinant (human) (UniProt P21810).
T1 sequence: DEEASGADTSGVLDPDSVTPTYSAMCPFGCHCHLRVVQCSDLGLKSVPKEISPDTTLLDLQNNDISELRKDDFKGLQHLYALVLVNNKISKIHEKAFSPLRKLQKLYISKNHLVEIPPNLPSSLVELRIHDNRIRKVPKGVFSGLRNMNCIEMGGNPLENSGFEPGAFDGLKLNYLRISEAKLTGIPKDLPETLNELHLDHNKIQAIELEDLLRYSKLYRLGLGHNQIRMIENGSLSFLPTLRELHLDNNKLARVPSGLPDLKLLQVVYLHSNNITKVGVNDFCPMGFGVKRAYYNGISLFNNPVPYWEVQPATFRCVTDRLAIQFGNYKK
In words: peptide or protein array; Microarray AVEXIS screening: BGN immobilised (100 ng/uL; the legend says on MaxiSorp plate, the methods say printed slides); blocked with PBS, 1% BSA, 10 mM D-biotin; normalized prey proteins incubated 1 h; detected with anti-Flag HRP antibody and TSA Alexa 555; 22 °C.

Turning to “pentameric GPVI (glycoprotein VI, collagen receptor) (from UniProt Q9HCN6)”, the binding result is recorded as “binds”.
